In the supplement of paper PMC10849652:
This is one part of the list.

The chains behind the UniProt entries cited, without tags or fusion partners. Where a name states a change or a piece, a line headed by the entry shows the natural chain unless it says otherwise.
UniProt Q9UHV9, whole entry, looked up: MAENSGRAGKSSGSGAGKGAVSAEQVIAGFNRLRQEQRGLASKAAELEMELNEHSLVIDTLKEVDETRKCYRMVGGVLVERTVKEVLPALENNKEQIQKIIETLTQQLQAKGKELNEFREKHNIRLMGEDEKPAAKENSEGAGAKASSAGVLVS
UniProt Q15084: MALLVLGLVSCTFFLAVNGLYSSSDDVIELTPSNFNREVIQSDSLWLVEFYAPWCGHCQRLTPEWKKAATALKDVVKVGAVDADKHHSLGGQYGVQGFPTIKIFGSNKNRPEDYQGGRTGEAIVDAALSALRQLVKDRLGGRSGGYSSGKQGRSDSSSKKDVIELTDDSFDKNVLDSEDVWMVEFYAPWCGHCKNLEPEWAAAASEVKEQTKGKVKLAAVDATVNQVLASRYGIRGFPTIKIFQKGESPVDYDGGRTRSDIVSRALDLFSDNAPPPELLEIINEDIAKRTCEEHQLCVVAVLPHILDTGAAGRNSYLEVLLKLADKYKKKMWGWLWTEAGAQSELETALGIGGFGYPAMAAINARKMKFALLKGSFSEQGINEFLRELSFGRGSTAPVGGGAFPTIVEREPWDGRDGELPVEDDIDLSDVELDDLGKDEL
UniProt Q15118, whole entry, looked up: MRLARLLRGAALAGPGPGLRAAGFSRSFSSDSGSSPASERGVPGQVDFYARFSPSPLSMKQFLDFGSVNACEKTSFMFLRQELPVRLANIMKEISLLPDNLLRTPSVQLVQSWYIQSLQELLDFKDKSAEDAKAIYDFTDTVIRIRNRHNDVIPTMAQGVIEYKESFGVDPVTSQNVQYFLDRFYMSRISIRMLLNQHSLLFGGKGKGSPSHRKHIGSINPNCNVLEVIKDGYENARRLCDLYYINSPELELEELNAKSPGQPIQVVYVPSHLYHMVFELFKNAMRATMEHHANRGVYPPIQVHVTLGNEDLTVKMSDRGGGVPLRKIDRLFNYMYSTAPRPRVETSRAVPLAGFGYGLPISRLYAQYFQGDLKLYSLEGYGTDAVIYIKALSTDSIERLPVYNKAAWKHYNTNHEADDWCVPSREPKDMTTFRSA
UniProt O60658: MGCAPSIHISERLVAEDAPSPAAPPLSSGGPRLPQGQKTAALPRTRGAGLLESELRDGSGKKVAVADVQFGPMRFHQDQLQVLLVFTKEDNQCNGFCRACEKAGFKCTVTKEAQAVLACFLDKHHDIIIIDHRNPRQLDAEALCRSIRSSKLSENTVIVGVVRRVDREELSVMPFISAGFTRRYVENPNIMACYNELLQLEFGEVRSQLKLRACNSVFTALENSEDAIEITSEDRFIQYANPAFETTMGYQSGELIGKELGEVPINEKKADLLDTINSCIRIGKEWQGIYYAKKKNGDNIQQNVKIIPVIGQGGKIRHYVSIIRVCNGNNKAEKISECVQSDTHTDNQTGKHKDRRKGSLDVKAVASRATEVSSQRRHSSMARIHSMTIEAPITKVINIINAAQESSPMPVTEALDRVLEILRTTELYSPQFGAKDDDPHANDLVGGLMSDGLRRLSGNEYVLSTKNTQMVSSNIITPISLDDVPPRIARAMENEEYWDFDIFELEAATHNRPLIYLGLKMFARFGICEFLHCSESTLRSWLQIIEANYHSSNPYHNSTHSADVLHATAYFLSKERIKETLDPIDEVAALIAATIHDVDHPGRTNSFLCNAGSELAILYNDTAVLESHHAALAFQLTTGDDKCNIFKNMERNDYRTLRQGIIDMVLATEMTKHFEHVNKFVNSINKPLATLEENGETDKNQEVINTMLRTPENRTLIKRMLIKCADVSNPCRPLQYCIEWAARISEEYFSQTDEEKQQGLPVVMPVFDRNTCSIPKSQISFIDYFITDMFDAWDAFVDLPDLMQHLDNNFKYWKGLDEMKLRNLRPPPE
UniProt Q9P0J1: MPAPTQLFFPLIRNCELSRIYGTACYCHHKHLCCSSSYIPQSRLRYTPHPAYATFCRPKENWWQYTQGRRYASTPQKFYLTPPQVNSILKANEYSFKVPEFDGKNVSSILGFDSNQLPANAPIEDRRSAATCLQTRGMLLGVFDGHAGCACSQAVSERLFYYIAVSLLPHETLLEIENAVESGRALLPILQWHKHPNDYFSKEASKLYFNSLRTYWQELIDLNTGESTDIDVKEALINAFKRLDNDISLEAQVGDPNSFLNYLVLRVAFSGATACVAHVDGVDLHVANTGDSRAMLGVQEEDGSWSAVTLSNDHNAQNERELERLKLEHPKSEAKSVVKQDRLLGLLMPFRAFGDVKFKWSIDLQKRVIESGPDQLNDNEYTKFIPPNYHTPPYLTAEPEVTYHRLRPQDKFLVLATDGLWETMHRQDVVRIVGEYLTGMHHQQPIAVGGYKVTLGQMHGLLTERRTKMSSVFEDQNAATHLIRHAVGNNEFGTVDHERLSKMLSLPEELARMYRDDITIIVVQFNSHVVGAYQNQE
UniProt O43933: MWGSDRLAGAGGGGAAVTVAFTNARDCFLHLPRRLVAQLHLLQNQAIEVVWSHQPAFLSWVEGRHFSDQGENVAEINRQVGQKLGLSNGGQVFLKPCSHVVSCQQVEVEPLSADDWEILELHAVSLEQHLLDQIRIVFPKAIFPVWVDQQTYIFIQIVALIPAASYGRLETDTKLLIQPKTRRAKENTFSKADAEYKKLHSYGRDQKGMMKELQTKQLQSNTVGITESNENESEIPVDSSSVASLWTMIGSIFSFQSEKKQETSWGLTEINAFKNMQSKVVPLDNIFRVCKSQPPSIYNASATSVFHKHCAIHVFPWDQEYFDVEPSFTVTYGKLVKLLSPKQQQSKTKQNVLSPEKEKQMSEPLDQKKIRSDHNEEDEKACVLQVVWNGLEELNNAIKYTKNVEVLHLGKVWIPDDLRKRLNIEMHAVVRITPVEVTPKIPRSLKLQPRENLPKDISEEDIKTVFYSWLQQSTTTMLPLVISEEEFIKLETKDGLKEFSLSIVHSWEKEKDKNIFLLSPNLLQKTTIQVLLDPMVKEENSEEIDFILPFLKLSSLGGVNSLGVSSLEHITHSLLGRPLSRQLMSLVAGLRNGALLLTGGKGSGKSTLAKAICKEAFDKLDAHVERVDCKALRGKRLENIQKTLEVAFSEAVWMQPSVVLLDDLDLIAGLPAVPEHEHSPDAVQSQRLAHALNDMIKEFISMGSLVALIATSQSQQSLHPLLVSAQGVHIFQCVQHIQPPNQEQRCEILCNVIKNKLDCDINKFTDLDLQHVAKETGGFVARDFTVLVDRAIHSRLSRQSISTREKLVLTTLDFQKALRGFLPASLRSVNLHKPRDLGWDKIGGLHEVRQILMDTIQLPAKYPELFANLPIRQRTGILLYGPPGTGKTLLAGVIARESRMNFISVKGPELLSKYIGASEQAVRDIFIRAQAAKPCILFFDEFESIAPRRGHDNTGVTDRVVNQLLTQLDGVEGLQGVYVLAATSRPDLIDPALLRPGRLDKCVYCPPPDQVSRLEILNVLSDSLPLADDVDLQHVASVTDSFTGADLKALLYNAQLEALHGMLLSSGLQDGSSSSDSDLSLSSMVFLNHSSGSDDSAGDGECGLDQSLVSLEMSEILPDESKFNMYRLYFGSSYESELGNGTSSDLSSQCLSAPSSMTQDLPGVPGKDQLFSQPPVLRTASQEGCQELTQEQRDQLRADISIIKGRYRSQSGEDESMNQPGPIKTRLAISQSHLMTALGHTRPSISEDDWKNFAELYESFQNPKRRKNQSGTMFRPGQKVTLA
UniProt O00623: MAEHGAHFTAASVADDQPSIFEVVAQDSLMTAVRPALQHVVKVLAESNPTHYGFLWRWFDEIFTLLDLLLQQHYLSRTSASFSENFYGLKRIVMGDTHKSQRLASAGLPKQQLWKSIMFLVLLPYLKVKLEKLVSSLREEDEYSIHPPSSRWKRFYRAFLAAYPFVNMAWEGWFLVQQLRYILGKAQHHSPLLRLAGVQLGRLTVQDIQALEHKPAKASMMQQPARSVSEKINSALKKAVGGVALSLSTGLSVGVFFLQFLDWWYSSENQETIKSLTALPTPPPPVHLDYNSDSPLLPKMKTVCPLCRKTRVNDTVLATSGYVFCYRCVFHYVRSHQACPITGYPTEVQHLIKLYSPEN
UniProt Q13370: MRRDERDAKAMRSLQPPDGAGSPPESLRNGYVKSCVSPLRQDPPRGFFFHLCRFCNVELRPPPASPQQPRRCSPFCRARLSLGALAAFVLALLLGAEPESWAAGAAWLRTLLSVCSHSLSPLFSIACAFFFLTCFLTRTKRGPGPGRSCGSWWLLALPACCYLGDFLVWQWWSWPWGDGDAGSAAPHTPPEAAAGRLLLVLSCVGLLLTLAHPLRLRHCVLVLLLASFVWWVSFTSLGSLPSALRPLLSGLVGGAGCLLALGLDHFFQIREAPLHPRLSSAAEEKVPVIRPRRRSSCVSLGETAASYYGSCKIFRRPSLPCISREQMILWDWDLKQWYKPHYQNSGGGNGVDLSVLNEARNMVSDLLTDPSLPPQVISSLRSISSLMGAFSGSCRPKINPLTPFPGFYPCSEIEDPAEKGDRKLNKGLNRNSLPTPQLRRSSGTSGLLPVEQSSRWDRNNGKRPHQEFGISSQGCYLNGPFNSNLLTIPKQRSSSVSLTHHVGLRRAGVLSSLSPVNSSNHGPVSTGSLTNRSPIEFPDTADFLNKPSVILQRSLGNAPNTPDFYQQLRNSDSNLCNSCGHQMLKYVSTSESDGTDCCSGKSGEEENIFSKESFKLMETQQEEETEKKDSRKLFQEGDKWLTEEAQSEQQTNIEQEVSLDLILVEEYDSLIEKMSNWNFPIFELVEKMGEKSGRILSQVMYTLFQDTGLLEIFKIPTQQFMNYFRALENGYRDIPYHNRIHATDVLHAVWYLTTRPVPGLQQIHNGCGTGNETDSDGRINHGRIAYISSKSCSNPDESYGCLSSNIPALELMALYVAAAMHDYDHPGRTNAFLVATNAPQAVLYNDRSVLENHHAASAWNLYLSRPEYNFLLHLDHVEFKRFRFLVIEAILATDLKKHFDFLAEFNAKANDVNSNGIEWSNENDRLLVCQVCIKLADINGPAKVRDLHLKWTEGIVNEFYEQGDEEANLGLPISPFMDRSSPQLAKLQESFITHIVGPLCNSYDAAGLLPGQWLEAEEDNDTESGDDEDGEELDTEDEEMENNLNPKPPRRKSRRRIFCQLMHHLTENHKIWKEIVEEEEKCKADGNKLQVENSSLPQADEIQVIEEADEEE
UniProt O15055: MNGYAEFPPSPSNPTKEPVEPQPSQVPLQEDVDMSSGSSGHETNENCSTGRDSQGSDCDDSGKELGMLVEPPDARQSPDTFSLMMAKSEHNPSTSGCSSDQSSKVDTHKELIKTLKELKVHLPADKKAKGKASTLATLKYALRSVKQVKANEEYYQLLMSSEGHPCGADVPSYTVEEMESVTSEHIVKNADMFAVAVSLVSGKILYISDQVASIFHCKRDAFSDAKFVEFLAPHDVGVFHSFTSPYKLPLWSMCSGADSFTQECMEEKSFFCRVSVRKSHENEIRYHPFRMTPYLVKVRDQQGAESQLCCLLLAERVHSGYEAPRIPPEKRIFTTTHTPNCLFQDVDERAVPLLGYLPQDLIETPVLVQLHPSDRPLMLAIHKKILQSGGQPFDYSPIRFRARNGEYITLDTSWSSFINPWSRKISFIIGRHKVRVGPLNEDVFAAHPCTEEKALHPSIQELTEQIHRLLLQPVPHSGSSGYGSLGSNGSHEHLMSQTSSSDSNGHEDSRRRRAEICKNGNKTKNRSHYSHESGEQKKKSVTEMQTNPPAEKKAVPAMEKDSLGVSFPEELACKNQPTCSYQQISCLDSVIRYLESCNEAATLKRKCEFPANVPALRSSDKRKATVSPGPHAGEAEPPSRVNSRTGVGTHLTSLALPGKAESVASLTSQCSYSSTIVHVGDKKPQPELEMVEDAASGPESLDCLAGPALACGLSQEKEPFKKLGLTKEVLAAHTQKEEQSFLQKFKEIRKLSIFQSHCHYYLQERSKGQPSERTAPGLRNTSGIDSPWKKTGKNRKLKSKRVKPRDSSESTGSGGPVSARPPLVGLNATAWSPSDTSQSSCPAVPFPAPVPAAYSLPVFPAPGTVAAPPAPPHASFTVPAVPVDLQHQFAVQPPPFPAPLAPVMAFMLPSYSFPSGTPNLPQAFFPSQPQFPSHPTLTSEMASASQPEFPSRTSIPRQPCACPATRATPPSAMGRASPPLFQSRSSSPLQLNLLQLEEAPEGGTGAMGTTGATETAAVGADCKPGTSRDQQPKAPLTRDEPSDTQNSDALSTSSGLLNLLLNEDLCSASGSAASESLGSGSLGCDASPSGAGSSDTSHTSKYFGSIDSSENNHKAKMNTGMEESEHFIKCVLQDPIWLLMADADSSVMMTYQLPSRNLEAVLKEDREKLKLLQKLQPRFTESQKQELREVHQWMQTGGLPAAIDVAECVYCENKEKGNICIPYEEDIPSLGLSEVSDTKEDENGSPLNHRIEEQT
UniProt P60673: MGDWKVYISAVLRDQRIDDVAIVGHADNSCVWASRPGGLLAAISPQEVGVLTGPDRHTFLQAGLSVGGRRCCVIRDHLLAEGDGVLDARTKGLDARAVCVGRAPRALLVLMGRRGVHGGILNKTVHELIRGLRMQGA

Legend:
Experiment in all cases: log2 fold change, soluble protein after heating vs DMSO (PISA); higher = thermal stabilisation; K562 lysate, 10 uM; active = over 0.2 and 3.5 SD of the protein, either way, in both replicates (recomputed)
alvocidib = compound: CN1CC[C@H](c2c(O)cc(O)c3c(=O)cc(-c4ccccc4Cl)oc23)[C@H](O)C1 [alvocidib]
How it was run: (§1)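 Soluble protein was defined as the supernatant remaining after 21,000xg for 90 min, following pooling of heated aliquots and adjustment to 0.5% NP-40 at 4°C. Before that, crude K562 extract at 1 mg/mL protein in PBS pH 7.4 with 1 mM MgCl2 was treated with 10 μM compound for 30 min and heated for 3 min across 48°C-58°C. Quantification used TMTpro 16plex LC-MS/MS with channel sums equalised, and values are log-two fold changes in thermal stability relative to solvent controls from duplicates.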

Tubastatin A = compound: CN1CCc2c(c3ccccc3n2Cc2ccc(C(=O)NO)cc2)C1 [Tubastatin A]
How it was run: as §1

[1] = compound: CNC(=O)C1=CC=CC=C1NC2=NC(=NC=C2Cl)NC3=C(C=C(C=C3)N4CCOCC4)OC
How it was run: as §1

defactinib = compound: CNC(=O)c1ccc(Nc2ncc(C(F)(F)F)c(NCc3nccnc3N(C)S(C)(=O)=O)n2)cc1 [defactinib]
How it was run: as §1

[2] = compound: CNc1nc(-c2ccc3c(N)n[nH]c3c2)cc(N2C[C@@H](C(=O)NC3CCCCC3)CC[C@H]2C)n1
How it was run: as §1

encorafenib = compound: COC(=O)N[C@@H](C)CNc1nccc(-c2cn(C(C)C)nc2-c2cc(Cl)cc(NS(C)(=O)=O)c2F)n1 [encorafenib]
How it was run: as §1

[3] = compound: COC(=O)[C@H](CCSC)NC(=O)C1=C(C=C(C=C1)NC[C@H](CS)N)C2=CC=CC=C2
How it was run: as §1

alisertib = compound: COc1cc(Nc2ncc3c(n2)-c2ccc(Cl)cc2C(c2c(F)cccc2OC)=NC3)ccc1C(=O)O [alisertib]
How it was run: as §1

[4] = compound: COc1cc2nc(-c3cc(F)ccc3O)nc(N[C@@H]3CNC[C@H]3C(C)(C)O)c2cc1OC
How it was run: as §1

gefitinib = compound: COc1cc2ncnc(Nc3ccc(F)c(Cl)c3)c2cc1OCCCN1CCOCC1 [gefitinib]
How it was run: as §1

Measured: log2 fold change

PFDN2 (UniProt Q9UHV9)
inactive: alvocidib 0.063 | Tubastatin A 0.01 | [1] -0.035 | defactinib 0.026 | [2] -0.012 | encorafenib 0.05 | [3] -0.025 | alisertib 0.033 | [4] 0.007 | gefitinib 0.012

PDIA6 isoform 2 (UniProt Q15084)
inactive: alvocidib 0.019 | Tubastatin A 0.094 | [1] -0.029 | defactinib -0.005 | [2] -0.012 | encorafenib -0.023 | [3] -0.055 | alisertib 0.003 | [4] -0.001 | gefitinib 0.021

PDE4A (UniProt P27815)
inactive: alvocidib -0.023 | Tubastatin A -0.007 | [1] 0.023 | defactinib -0.264 | [2] -0.055 | encorafenib -0.03 | [3] -0.04 | alisertib -0.035 | gefitinib 0.05

PDK1 (UniProt Q15118)
inactive: alvocidib 0.062 | Tubastatin A -0.153 | [1] 0.024 | defactinib -0.151 | [2] -0.084 | encorafenib 0.011 | [3] 0.012 | [4] -0.051

PDIA3 (UniProt P30101)
inactive: alvocidib 0.031 | Tubastatin A 0.013 | [1] -0.016 | defactinib -0.017 | [2] -0.012 | encorafenib -0.01 | [3] -0.047 | alisertib 0.017 | [4] 0.007 | gefitinib -0.018

PFKFB1 (UniProt P16118)
inactive: alvocidib 0.054 | Tubastatin A -0.026 | [1] 0.097 | defactinib 0.005 | [2] 0.149 | encorafenib 0.094 | [3] -0.052 | [4] 0.099

PCBP2 (UniProt F8VRH0)
inactive: alvocidib -0.1 | Tubastatin A 0.067 | [1] -0.123 | alisertib 0.231 | [4] 0.096 | gefitinib 0.045

PEAK1 (UniProt Q9H792)
inactive: alvocidib -0.067 | Tubastatin A -0.139 | [1] 0.164 | defactinib -0.116 | [2] 0.022 | alisertib 0.062 | gefitinib -0.083

PCID2 (UniProt Q5JVF3)
inactive: alvocidib 0 | Tubastatin A -0.084 | [1] -0.034 | defactinib 0.024 | [2] -0.042 | encorafenib 0.08 | [3] -0.066 | alisertib -0.012 | [4] 0.01 | gefitinib -0.009

PC (UniProt P11498)
inactive: alvocidib 0.007 | Tubastatin A -0.046 | [1] 0.064 | defactinib 0.016 | [2] 0.044 | encorafenib 0.011 | [3] 0.062 | alisertib -0.033 | [4] 0.021 | gefitinib 0.022

PAXIP1 (UniProt Q6ZW49)
inactive: alvocidib -0.05 | Tubastatin A -0.062 | [1] 0.017 | defactinib -0.048 | [2] 0.018 | encorafenib 0.016 | [3] 0.095 | alisertib 0.01 | [4] 0.058 | gefitinib 0.036

PCMTD2 (UniProt Q9NV79)
inactive: [1] -0.357 | defactinib 0.095 | encorafenib 0 | [3] 0.11

PDE4DIP (UniProt E9PS60)
inactive: alvocidib -0.111 | [1] -0.02 | defactinib 0.056 | [2] -0.089 | encorafenib -0.059 | [3] -0.039 | alisertib 0.013 | gefitinib 0.005

PDE8A (UniProt O60658)
inactive: [1] 0.164 | defactinib 0

PCNX3 (UniProt Q9H6A9)
inactive: alvocidib 0.035 | defactinib -0.054 | [2] -0.127 | encorafenib -0.019 | [3] 0.02 | [4] 0.043

PARP12 (UniProt Q9H0J9)
inactive: Tubastatin A 0.093 | [1] 0.088 | [2] -0.017 | encorafenib 0.056 | [3] 0.02 | [4] -0.07

2 entries drawn at random from the list so far, as already listed:
PARP12 (UniProt Q9H0J9)
inactive: Tubastatin A 0.093 | [1] 0.088 | [2] -0.017 | encorafenib 0.056 | [3] 0.02 | [4] -0.07

PCMTD2 (UniProt Q9NV79)
inactive: [1] -0.357 | defactinib 0.095 | encorafenib 0 | [3] 0.11

(further entries)

PFN1 (UniProt I3L3D5)
inactive: alvocidib 0.045 | Tubastatin A -0.01 | encorafenib 0.157 | [3] 0.058 | alisertib 0.028 | [4] -0.195 | gefitinib 0.062

PEX6 (UniProt Q13608)
inactive: alvocidib -0.051 | [1] -0.092 | [2] -0.034 | encorafenib -0.02 | [3] 0.069

PCGF3 isoform 2 (UniProt Q3KNV8)
inactive: [1] 0.051

PEX5 (UniProt J3KPV0)
inactive: Tubastatin A -0.043 | defactinib 0.209 | encorafenib -0.042 | [3] 0.054

PCK1 (UniProt P35558)
inactive: alvocidib -0.396 | defactinib -0.106 | [4] 0.121

PGAP2 isoform 2 (UniProt Q9UHJ9)
inactive: encorafenib 0.12 | [3] 0.17

PEMT isoform 2 (UniProt Q9UBM1)
inactive: alvocidib 0.14 | defactinib -0.083 | [4] -0.198

PDP1 isoform 2 (UniProt Q9P0J1)
inactive: Tubastatin A 0.407 | [1] 0.025 | [2] -0.205 | encorafenib 0.14 | [3] -0.319

PEX3 (UniProt P56589)
inactive: alvocidib -0.099 | [2] 0.042 | encorafenib -0.144 | [3] 0.066 | [4] 0.09

Copied from the listing (4 entries):
PCGF3 isoform 2 (UniProt Q3KNV8)
inactive: [1] 0.051

PEX5 (UniProt J3KPV0)
inactive: Tubastatin A -0.043 | defactinib 0.209 | encorafenib -0.042 | [3] 0.054

PCK1 (UniProt P35558)
inactive: alvocidib -0.396 | defactinib -0.106 | [4] 0.121

PGAP2 isoform 2 (UniProt Q9UHJ9)
inactive: encorafenib 0.12 | [3] 0.17

(further entries)

PCGF1 (UniProt Q9BSM1)
inactive: alvocidib -0.044 | [1] 0.026 | defactinib -0.174 | [2] -0.274 | encorafenib 0.06 | [3] 0.116

PDIK1L (UniProt Q8N165)
inactive: Tubastatin A -0.14 | [2] -0.31

PCGF5 (UniProt Q86SE9)
inactive: Tubastatin A -0.072 | [1] 0.035 | defactinib -0.112 | [2] -0.006 | encorafenib 0.087 | [3] -0.015 | alisertib -0.039 | [4] 0.032 | gefitinib 0.102

PEX1 (UniProt O43933)
inactive: Tubastatin A -0.188 | defactinib 0.119 | encorafenib -0.09 | [3] -0.137 | [4] 0.071

PECR (UniProt Q9BY49)
inactive: encorafenib 0.101 | [3] -0.184

PCBP2 (UniProt F8W0G4)
inactive: Tubastatin A -0.009 | [1] 0.01 | defactinib 0.044 | [2] 0.033 | encorafenib 0.125 | [3] -0.006 | alisertib 0.192 | gefitinib 0.028

PARPBP (UniProt Q9NWS1)
inactive: alvocidib 0.11 | [1] -0.004 | defactinib -0.152 | [2] 0.145 | encorafenib 0.03 | [3] -0.016 | alisertib -0.033 | gefitinib 0.112

PGD (UniProt K7EPF6)
inactive: alisertib -0.001 | [4] 0.104 | gefitinib -0.094

PER1 (UniProt O15534)
inactive: alvocidib 0.04 | [2] -0.425

PDIA4, A0A499FI48
inactive: alvocidib 0.336 | [2] -0.003

PEX12 (UniProt O00623)
inactive: alvocidib 0.117 | [4] -0.063

PARP4 (UniProt Q9UKK3)
inactive: alvocidib 0.004 | [1] -0.011 | [2] -0.056 | encorafenib 0.034 | [3] 0.036 | alisertib -0.047 | [4] 0.196 | gefitinib -0.183

PDCD7 (UniProt Q8N8D1)
inactive: encorafenib 0.197 | [3] -0.044

PDE3B (UniProt Q13370)
inactive: alvocidib 0.158 | Tubastatin A -0.01 | [2] -0.108

PER2 (UniProt O15055)
inactive: alvocidib -0.032 | defactinib 0.044

PFN3 (UniProt P60673)
inactive: alvocidib -0.182 | defactinib -0.109 | encorafenib 0.125 | [3] -0.28 | alisertib -0.047 | [4] 0.154 | gefitinib 0.075

PARP9 (UniProt Q8IXQ6)
inactive: Tubastatin A 0.058 | [1] -0.126 | defactinib -0.035 | [2] -0.189 | encorafenib 0.038 | [3] 0.119 | [4] 0.079

PCMTD1 (UniProt Q96MG8)
inactive: defactinib -0.006 | encorafenib -0.022 | [3] -0.053

PCM1 isoform 5 (UniProt Q15154)
inactive: encorafenib -0.01 | [3] -0.107
